# PubChem BioAssay AID445 (National Center for Advancing Translational Sciences (NCATS), 2006)
# Some of the results follow. Further columns of the screen follow, without active or inactive calls. The list favours compounds with an active or inconclusive main result. Words in brackets tell the shape of the fitted curve; partial curves, single points and poor fits give uncertain potencies.
# Experiment: IkB Signaling
# Details: ABC-DLBCL IkBa-CBG/CBR dual luciferase ratio (green luciferase fused to IkBa over red control in OCI-Ly3 lymphoma cells), 4 h
# Procedure, shortened: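 Curves were fitted separately to fusion (green), unfused (red) and ratio luminescence, then classed by r2, magnitude and activity. Cells: OCI-Ly3, 4 h compound plus doxycycline at 37C; 10 uM MG-132 defined full response.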
# [1] = measured here: control luc red channel unless noted
# [2] = measured here: IkB-luc green channel
# [3] = measured here: control luc red channel
smiles,measurement,setting,value
Cc1ccccc1CNC(=O)Cn1nc(C)c2nn(-c3ccc(Cl)cc3)c(C)c2c1=O,AC50,[1],"0.0501 µM [falling, full curve]"
COc1ccc(N2CCN(c3ncccc3-c3nc(-c4ccccc4C)no3)CC2)cc1,AC50,[1],"25.1 µM [falling, single point]"
CCc1cccc(C)c1NC(=O)CN1CCN(Cc2ccccc2Cl)S1(=O)=O,AC50,[1],"10 µM [falling, partial curve]"
CCc1ccc(NC(=O)Cn2c(=O)c3cccn3c3ccccc32)cc1,AC50,[1],"10 µM [falling, partial curve]"
Cc1nn(-c2ccccc2)c(C)c1C(=O)OCC(=O)Nc1ccc2c(c1)OCO2,AC50,[1],"15.8 µM [falling, partial curve]"
CCN(CC)S(=O)(=O)c1ccc2c(c1)N(CC(=O)N1CCN(c3cccc(C)c3)C(C)C1)C(=O)CO2 (configuration not stated),AC50,[1],"7.94 µM [falling, partial curve]"
COc1ccc(-c2csc3nc(-c4ccc(Cl)cc4)oc(=O)c23)cc1,AC50,[1],"3.16 µM [falling, full curve]"
Cc1cccc(NC(=O)CCn2cnnn2)c1,AC50,[1],"5.01 µM [falling, full curve]"
COc1cc(C(=O)Nc2ccc3nc4n(c(=O)c3c2)CCCCC4)cc(OC)c1OC,AC50,[1],"15.8 µM [falling, partial curve]"
CCOC(=O)c1ccoc1CSCc1ccc(C(=O)OC)o1,AC50,[2],"39.8 µM [rising, single point]"
same,AC50,[3],"15.8 µM [rising, partial curve]"
COc1ccccc1-n1cnc2cc(NCc3ccco3)ccc21,AC50,[1],"10 µM [falling, partial curve]"
O=S(=O)(Nc1ccc2c(c1)OCCO2)c1ccc2oc3ccccc3c2c1,AC50,[1],"15.8 µM [falling, partial curve]"
COc1ccc(S(=O)(=O)N2CCC(Oc3cccc(C(F)(F)F)c3)CC2)cc1OC,AC50,[1],"25.1 µM [falling, single point]"
CCc1cccc(NC(=O)c2cnc(N3CCOCC3)c3ccccc23)c1,AC50,[1],"6.31 µM [rising, single point]"
CCOC(=O)c1cc(-c2ccccc2)n(CCCC(=O)Nc2ccc(C)c(Cl)c2)c1C,AC50,[1],"3.98 µM [rising, partial curve]"
Cc1ccc(-n2c(=O)c3c(C)c(C(=O)N(C)C)sc3n(CC(=O)N(C)c3ccccc3)c2=O)cc1C,AC50,[1],"0.0158 µM [rising, full curve]"
Cc1ccc(C)c(NC(=O)CSc2nc3nccnc3c(=O)n2CCc2c[nH]c3ccccc23)c1,AC50,[1],"12.6 µM [falling, partial curve]"
Cc1ccc(-c2nnc(SCC(=O)N3c4ccccc4NC(=O)C3(C)C)n2N)cc1,AC50,[1],"2.51 µM [falling, full curve]"
CCOc1ccc2c(ccc(/C=C\c3cc(C)c4cccnc4c3O)[n+]2C)c1,AC50,[1],"3.98 µM [falling, partial curve]"
COc1cc(C(=O)NCCc2sc(-c3ccc(C)cc3)nc2C)cc(OC)c1OC,AC50,[1],"20 µM [falling, single point]"
CC1CCN(C(=O)Cn2cc(SCC(=O)NCc3ccc(F)cc3)c3ccccc32)CC1,AC50,[1],"10 µM [falling, partial curve]"
CCCCc1ccc(C(=O)c2c(N)c(C(=O)Nc3cccc(OC)c3)c3ccccn23)cc1,AC50,[1],"10 µM [rising, partial curve]"
O=C(CSc1nnc(-c2ccccc2Cl)n1Cc1ccco1)Nc1ccc2c(c1)OCCO2,AC50,[1],"12.6 µM [falling, partial curve]"
COc1ccc(C(=O)/C=C/c2cn(CC(O)CN3CCCCCC3)c3ccccc23)cc1OC (configuration not stated),AC50,[1],"25.1 µM [falling, partial curve]"
COc1ccc(NC(=O)CSc2nc3ccccc3nc2N2CCOCC2)c(OC)c1,AC50,[1],"39.8 µM [falling, single point]"
CCc1ccc(NC(=O)CCc2c(C)nn(-c3ccc(N4CCCC4)nn3)c2C)cc1,AC50,[1],"25.1 µM [falling, single point]"
C=CC(C)(C)c1[nH]c2ccccc2c1C1=C(O)C(=O)C(c2c[nH]c3c(CC=C(C)C)cccc23)=C(O)C1=O,AC50,[1],"39.8 µM [falling, partial curve]"
COc1ccc(-c2nc3ccccc3o2)cc1NC(=O)COc1cc(C)cc(C)c1,AC50,[1],"7.94 µM [rising, full curve]"
COc1ccc(NS(=O)(=O)c2cnc(N)nc2)cc1Cl,AC50,[1],"0.00501 µM [falling, full curve, poor fit]"
CCCn1c(NCc2cc(OC)ccc2OC)nc2ccccc21,AC50,[1],"12.6 µM [falling, partial curve]"
COc1ccc(NC(=O)CCS(=O)(=O)c2cc3c4c(c2)CCN4C(=O)CC3)c(OC)c1,AC50,[2],"0.794 µM [rising, single point]"
same,AC50,[3],"0.794 µM [rising, full curve]"
O=C(COc1ccc2oc3c(c2c1)CCCC3)Nc1cccc(Br)c1,AC50,[1],"25.1 µM [falling, partial curve]"
Cn1c(=O)oc2cc(S(=O)(=O)N3CCC4(CC3)OCCO4)ccc21,AC50,[1],"2 µM [falling, full curve, poor fit]"
CCC(C)NC(=O)CCCn1c(=O)c2cccn2c2ccccc21 (configuration not stated),AC50,[1],"39.8 µM [falling, single point]"
Cc1ccc2nc(-c3ccccc3Cl)cc(C(=O)Nc3cc(C)on3)c2c1,AC50,[1],"10 µM [falling, partial curve]"
COc1ccc(C2C(=O)N(C3CCCCCC3)CC(=O)N2CCc2ccc(Cl)cc2)cc1OC (configuration not stated),AC50,[1],"3.16 µM [rising, single point]"
CCC(C(=O)NC1CCCCC1)n1c(SCc2ccccc2F)nc2ccncc21 (configuration not stated),AC50,[1],"15.8 µM [falling, partial curve]"
CCc1ccc(NC(=O)CSc2ccc(-c3sc(-c4ccccc4)nc3C)nn2)cc1,AC50,[1],"1.58 µM [falling, full curve]"
Nn1c(SCC(=O)Nc2ccc(F)c(F)c2)nnc1C1CCCCC1,AC50,[1],"5.01 µM [falling, partial curve]"
Cc1ccc(C2CC(=O)N(Cc3ccc(F)cc3)c3c2c(C)nn3-c2nc(C)cc(C)n2)cc1 (configuration not stated),AC50,[1],"15.8 µM [falling, single point]"

# Random excerpt: 3 records from the list.
smiles,measurement,setting,value
COc1ccc(-c2nc3ccccc3o2)cc1NC(=O)COc1cc(C)cc(C)c1,AC50,[1],"7.94 µM [rising, full curve]"
CCc1cccc(NC(=O)c2cnc(N3CCOCC3)c3ccccc23)c1,AC50,[1],"6.31 µM [rising, single point]"
Cc1cccc(NC(=O)CCn2cnnn2)c1,AC50,[1],"5.01 µM [falling, full curve]"
